From publication PMC12205875, “CRY1–GAIP1 complex mediates blue light to hinder the repression of PIF5 on AGL5 to promote carotenoid biosynthesis in mango fruit” come the findings set out here.

Construct, isoform or probe ends are uncertain for at least one entry.

The subject of this data set is MiAGL5 (Mangifera indica). Put plainly: EMSA. The settings on record: LightShift Chemiluminescent EMSA kit (Thermo) per manufacturer; pH and temperature not stated; recombinant protein; protein details: GST (pGEX4T); label: 3' biotin.

For the sequence “CACTTCTTCACCCAACCAAAAGCTTAATTTTGTTAATGAATACGAATCTTCATACAGCGTAAG (double strand) [ProMiZEP-Probe]”, the binding result was “binds”.

“GCTTTTAGCATACAGAAAAGGAACCCAGCTTTGATCAATTGCCTTGGGCC (double strand) [ProMiBCH1-Probe]”: the binding result was “binds”.
